Measurements: the supplement of paper PMC8728848
Some of the results follow.

How the values were obtained:
Assay in all cases: glycan array binding signal (z-score within array); higher = stronger binding
Conditions in all cases: glycan notation: IUPAC condensed, linker removed
[1] = target: Neu5Ac(a2-3)Gal(b1-4)GlcNAc
Summary of the method: (§1)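 The binding signal is a Z-score computed within each array and averaged over linkers. Arrays of the same protein sequence at different concentrations or buffers were also averaged together. Data originate from 3228 arrays in the Consortium for Functional Glycomics database, kept only where the protein sequence was available.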

[2] = target: Neu5Ac(a2-3)Gal(b1-4)GlcNAc(b1-2)Man
Summary of the method: as §1

[3] = target: Neu5Ac(a2-3)Gal(b1-4)GlcNAc(b1-2)Man(a1-3)[GlcNAc(b1-4)][Neu5Ac(a2-3)Gal(b1-4)GlcNAc(b1-2)Man(a1-6)]Man(b1-4)GlcNAc(b1-4)GlcNAc
Summary of the method: as §1

[4] = target: Neu5Ac(a2-3)Gal(b1-4)GlcNAc(b1-2)Man(a1-3)[Neu5Ac(a2-3)Gal(b1-4)GlcNAc(b1-2)Man(a1-6)]Man(b1-4)GlcNAc(b1-4)GlcNAc
Summary of the method: as §1

[5] = target: Neu5Ac(a2-3)Gal(b1-4)GlcNAc(b1-2)Man(a1-3)[Neu5Ac(a2-3)Gal(b1-4)GlcNAc(b1-2)Man(a1-6)]Man(b1-4)GlcNAc(b1-4)[Fuc(a1-6)]GlcNAc
Summary of the method: as §1

[6] = target: Neu5Ac(a2-3)Gal(b1-4)GlcNAc(b1-2)Man(a1-3)[Neu5Ac(a2-6)Gal(b1-4)GlcNAc(b1-2)Man(a1-6)]Man(b1-4)GlcNAc(b1-4)GlcNAc
Summary of the method: as §1

[7] = target: Neu5Ac(a2-3)Gal(b1-4)GlcNAc(b1-2)[Neu5Ac(a2-3)Gal(b1-4)GlcNAc(b1-4)]Man(a1-3)[GlcNAc(b1-4)][Neu5Ac(a2-3)Gal(b1-4)GlcNAc(b1-2)[Neu5Ac(a2-3)Gal(b1-4)GlcNAc(b1-6)]Man(a1-6)]Man(b1-4)GlcNAc(b1-4)GlcNAc
Summary of the method: as §1

[8] = target: Neu5Ac(a2-3)Gal(b1-4)GlcNAc(b1-2)[Neu5Ac(a2-3)Gal(b1-4)GlcNAc(b1-4)]Man(a1-3)[GlcNAc(b1-4)][Neu5Ac(a2-3)Gal(b1-4)GlcNAc(b1-4)Man(a1-6)]Man(b1-4)GlcNAc(b1-4)GlcNAc
Summary of the method: as §1

[9] = target: Neu5Ac(a2-3)Gal(b1-4)GlcNAc(b1-2)[Neu5Ac(a2-3)Gal(b1-4)GlcNAc(b1-6)]Man(a1-6)[Neu5Ac(a2-3)Gal(b1-4)GlcNAc(b1-2)Man(a1-3)]Man(b1-4)GlcNAc(b1-4)GlcNAc
Summary of the method: as §1

[10] = target: Neu5Ac(a2-3)Gal(b1-4)GlcNAc(b1-2)[Neu5Ac(a2-3)Gal(b1-4)GlcNAc(b1-6)]Man(a1-6)[Neu5Ac(a2-3)Gal(b1-4)GlcNAc(b1-2)Man(a1-3)][GlcNAc(b1-4)]Man(b1-4)GlcNAc(b1-4)GlcNAc
Summary of the method: as §1

[11] = target: Neu5Ac(a2-3)Gal(b1-4)GlcNAc(b1-3)Gal
Summary of the method: as §1

[12] = target: Neu5Ac(a2-3)Gal(b1-4)GlcNAc(b1-3)Gal(b1-3)GlcNAc
Summary of the method: as §1

[13] = target: Neu5Ac(a2-3)Gal(b1-4)GlcNAc(b1-3)Gal(b1-4)GlcNAc
Summary of the method: as §1

[14] = target: Neu5Ac(a2-3)Gal(b1-4)GlcNAc(b1-3)Gal(b1-4)GlcNAc(b1-2)Man(a1-3)[Neu5Ac(a2-3)Gal(b1-4)GlcNAc(b1-3)Gal(b1-4)GlcNAc(b1-2)Man(a1-6)]Man(b1-4)GlcNAc(b1-4)GlcNAc
Summary of the method: as §1

[15] = target: Neu5Ac(a2-3)Gal(b1-4)GlcNAc(b1-3)Gal(b1-4)GlcNAc(b1-3)Gal(b1-4)GlcNAc
Summary of the method: as §1

[16] = target: Neu5Ac(a2-3)Gal(b1-4)GlcNAc(b1-3)Gal(b1-4)GlcNAc(b1-3)Gal(b1-4)GlcNAc(b1-2)Man(a1-3)[Neu5Ac(a2-3)Gal(b1-4)GlcNAc(b1-3)Gal(b1-4)GlcNAc(b1-3)Gal(b1-4)GlcNAc(b1-2)Man(a1-6)]GalNAc
Summary of the method: as §1

[17] = target: Neu5Ac(a2-3)Gal(b1-4)GlcNAc(b1-3)Gal(b1-4)GlcNAc(b1-3)GalNAc
Summary of the method: as §1

[18] = target: Neu5Ac(a2-3)Gal(b1-4)GlcNAc(b1-3)Gal(b1-4)GlcNAc(b1-3)[Neu5Ac(a2-3)Gal(b1-4)GlcNAc(b1-3)Gal(b1-4)GlcNAc(b1-6)]GalNAc
Summary of the method: as §1

[19] = target: Neu5Ac(a2-3)Gal(b1-4)GlcNAc(b1-3)Gal(b1-4)GlcNAc(b1-6)[Gal(b1-3)]GalNAc
Summary of the method: as §1

[20] = target: Neu5Ac(a2-3)Gal(b1-4)GlcNAc(b1-3)Gal(b1-4)[Fuc(a1-3)]GlcNAc
Summary of the method: as §1

[21] = target: Neu5Ac(a2-3)Gal(b1-4)GlcNAc(b1-3)GalNAc
Summary of the method: as §1

[22] = target: Neu5Ac(a2-3)Gal(b1-4)GlcNAc(b1-3)[Neu5Ac(a2-3)Gal(b1-4)GlcNAc(b1-6)]GalNAc
Summary of the method: as §1

[23] = target: Neu5Ac(a2-3)Gal(b1-4)GlcNAc(b1-6)GalNAc
Summary of the method: as §1

[24] = target: Neu5Ac(a2-3)Gal(b1-4)GlcNAc(b1-6)[Gal(b1-3)]GalNAc
Summary of the method: as §1

[25] = target: Neu5Ac(a2-3)Gal(b1-4)GlcNAc(b1-6)[Neu5Ac(a2-3)Gal(b1-3)]GalNAc
Summary of the method: as §1

[26] = target: Neu5Ac(a2-3)Gal(b1-4)GlcNAc6S
Summary of the method: as §1

[27] = target: Neu5Ac(a2-3)Gal(b1-4)[Fuc(a1-3)]GlcNAc
Summary of the method: as §1

[28] = target: Neu5Ac(a2-3)Gal(b1-4)[Fuc(a1-3)]GlcNAc(b1-2)Man
Summary of the method: as §1

[29] = target: Neu5Ac(a2-3)Gal(b1-4)[Fuc(a1-3)]GlcNAc(b1-3)Gal
Summary of the method: as §1

[30] = target: Neu5Ac(a2-3)Gal(b1-4)[Fuc(a1-3)]GlcNAc(b1-3)Gal(b1-4)GlcNAc
Summary of the method: as §1

[31] = target: Neu5Ac(a2-3)Gal(b1-4)[Fuc(a1-3)]GlcNAc(b1-3)Gal(b1-4)[Fuc(a1-3)]GlcNAc(b1-3)Gal(b1-4)[Fuc(a1-3)]GlcNAc
Summary of the method: as §1

[32] = target: Neu5Ac(a2-3)Gal(b1-4)[Fuc(a1-3)]GlcNAc(b1-3)GalNAc
Summary of the method: as §1

[33] = target: Neu5Ac(a2-3)Gal(b1-4)[Fuc(a1-3)]GlcNAc(b1-6)[Gal(b1-3)]GalNAc
Summary of the method: as §1

[34] = target: Neu5Ac(a2-3)Gal(b1-4)[Fuc(a1-3)]GlcNAc(b1-6)[Neu5Ac(a2-3)Gal(b1-3)]GalNAc
Summary of the method: as §1

[35] = target: Neu5Ac(a2-3)Gal(b1-4)[Fuc(a1-3)]GlcNAc6S
Summary of the method: as §1

[36] = target: Neu5Ac(a2-3)Gal6S(b1-4)GlcNAc
Summary of the method: as §1

[37] = target: Neu5Ac(a2-3)Gal6S(b1-4)[Fuc(a1-3)]GlcNAc
Summary of the method: as §1

Neu5Ac(a2-3)GalNAc = target: Neu5Ac(a2-3)GalNAc
Summary of the method: as §1

B1: Epf (Streptococcus pyogenes) (protein)
chain: GDHGPEFNGVMVVKAAEAEELPDDLMNFKGTWEVSADGSSGRFFSKGATDSYVFHLIPAKDVKKPGWREHNEVKDSYIKIDKQSIAARYKTSTTAPYSVAFKVNTKSLIKDHDYKITFEQGQIASGITVDYRIGSAFNKTTDDSFKISDESKYASNVKIEGEEQGFKQREQGDKTISFRTLKEGPMSLVLLSKVEKKPQGDLDVEFKNLKIIDVTNPSQLDKGVAYVGNKNVQLTLKSDDGRTNFEGDEISLFNSRGELLQTVTVTKDQQNPISITLSEDQAKSLKNKEKLKVSIKQKQSKKTSKDFFFEVGIDPKVEAKQKEKLLELDKVKKQIEDSINGDAWLPEKPVDLQGDHGLSAWSHPQFEK
[1]
  glycan array binding signal (z-score): -0.467
[2]
  glycan array binding signal (z-score): 1.89
[3]
  glycan array binding signal (z-score): 0.694
[4]
  glycan array binding signal (z-score): -0.049
[5]
  glycan array binding signal (z-score): -0.499
[6]
  glycan array binding signal (z-score): -0.643
[7]
  glycan array binding signal (z-score): -1.09
[8]
  glycan array binding signal (z-score): 0.124
[9]
  glycan array binding signal (z-score): -0.195
[10]
  glycan array binding signal (z-score): -0.742
[11]
  glycan array binding signal (z-score): -1.72
[12]
  glycan array binding signal (z-score): -0.595
[13]
  glycan array binding signal (z-score): -0.961
[14]
  glycan array binding signal (z-score): 1.33
[15]
  glycan array binding signal (z-score): -0.329
[16]
  glycan array binding signal (z-score): 0.472
[17]
  glycan array binding signal (z-score): -0.677
[18]
  glycan array binding signal (z-score): 0.176
[19]
  glycan array binding signal (z-score): 1.71
[20]
  glycan array binding signal (z-score): -0.954
[21]
  glycan array binding signal (z-score): 1.66
[22]
  glycan array binding signal (z-score): 1.07
[23]
  glycan array binding signal (z-score): -0.868
[24]
  glycan array binding signal (z-score): 0.531
[25]
  glycan array binding signal (z-score): -0.626
[26]
  glycan array binding signal (z-score): 0.198
[27]
  glycan array binding signal (z-score): -0.747
[28]
  glycan array binding signal (z-score): -1.48
[29]
  glycan array binding signal (z-score): -1.57
[30]
  glycan array binding signal (z-score): -0.491
[31]
  glycan array binding signal (z-score): -1.22
[32]
  glycan array binding signal (z-score): 0.903
[33]
  glycan array binding signal (z-score): 0.346
[34]
  glycan array binding signal (z-score): 1.01
[35]
  glycan array binding signal (z-score): 0.756
[36]
  glycan array binding signal (z-score): 0.802
[37]
  glycan array binding signal (z-score): -0.292
Neu5Ac(a2-3)GalNAc
  glycan array binding signal (z-score): 0.334
